Results published in patent US20070112068A1, “Nitrile compound and its use in pest control” (priority 2003, published 2007).
Some entries share one result that the patent states for a list of compounds. For at least one compound, name, drawing or mass did not settle the structure.

Legend:
Format in all cases: in vivo
[1] = system: Nilaparvata lugens; assay: Experimental Example 1: spray on rice plants, Nilaparvata lugens larvae; conditions: 500 ppm, 20 ml/cup sprayed on rice plants; 30 first-instar larvae released; sixth day after release
[2] = system: Musca domestica; assay: Experimental Example 2: treated filter paper with sucrose bait, Musca domestica; conditions: 500 ppm, 0.7 ml on filter paper; 10 female imagoes; after 24 hours
[3] = system: Culex pipiens pallens; assay: Experimental Example 4: larvae in treated water, Culex pipiens pallens; conditions: active ingredient concentration 3.5 ppm in water; 20 last-instar larvae; after one day

## N#CC(C#N)(CCCCl)CCC(F)(F)F [(1)]
[1]
  number of the parasitic pest (Nilaparvata lugens on the rice plants): ≤ 3
[2]
  death rate of the pest: ≥ 90%
[3]
  death rate of the pest: ≥ 90%

## CC(C)=CCC(C#N)(C#N)CC(F)(F)C(F)(F)C(F)(F)C(F)F [(78)]
[1]
  number of the parasitic pest (Nilaparvata lugens on the rice plants): ≤ 3
[2]
  death rate of the pest: ≥ 90%
[3]
  death rate of the pest: ≥ 90%

## N#CC(C#N)(CCC(F)(F)F)CC(F)(F)C(F)(F)C(F)(F)C(F)(F)C(F)(F)C(F)F [(32)]
[1]
  number of the parasitic pest (Nilaparvata lugens on the rice plants): ≤ 3
[2]
  death rate of the pest: ≥ 90%
[3]
  death rate of the pest: ≥ 90%

## N#CC(C#N)(CBr)CCC(F)(F)F [(52)]
[2]
  death rate of the pest: ≥ 90%

## C=CCCC(C#N)(C#N)CCC(F)(F)F [(16)]
[2]
  death rate of the pest: ≥ 90%

## N#CC(C#N)(CCC(F)(C(F)(F)F)C(F)(F)F)CCC(F)(C(F)(F)F)C(F)(F)F [(56)]
[1]
  number of the parasitic pest (Nilaparvata lugens on the rice plants): ≤ 3
[2]
  death rate of the pest: ≥ 90%
[3]
  death rate of the pest: ≥ 90%

## N#CC(C#N)(CCC(F)(F)C(F)(F)F)CC(F)(F)C(F)(F)C(F)(F)C(F)F [(68)]
[1]
  number of the parasitic pest (Nilaparvata lugens on the rice plants): ≤ 3
[2]
  death rate of the pest: ≥ 90%
[3]
  death rate of the pest: ≥ 90%

## N#CC(C#N)(CCC(F)(F)F)CCC(F)(Cl)C(F)(F)Cl (centres unmarked) [(54)]
[1]
  number of the parasitic pest (Nilaparvata lugens on the rice plants): ≤ 3
[2]
  death rate of the pest: ≥ 90%
[3]
  death rate of the pest: ≥ 90%

## N#CC(C#N)(CCC(F)(F)F)CCC(F)(F)C(F)(F)F [(29)]
[1]
  number of the parasitic pest (Nilaparvata lugens on the rice plants): ≤ 3
[2]
  death rate of the pest: ≥ 90%
[3]
  death rate of the pest: ≥ 90%

## N#CC(C#N)(CC1CC1)CC(F)(F)C(F)(F)C(F)(F)C(F)F [(72)]
[1]
  number of the parasitic pest (Nilaparvata lugens on the rice plants): ≤ 3
[3]
  death rate of the pest: ≥ 90%

## N#CC(C#N)(CCC(F)(Cl)C(F)(F)Cl)CC(F)(F)C(F)(F)C(F)(F)C(F)F (centres unmarked) [(67)]
[1]
  number of the parasitic pest (Nilaparvata lugens on the rice plants): ≤ 3
[2]
  death rate of the pest: ≥ 90%
[3]
  death rate of the pest: ≥ 90%

## N#CC(C#N)(CCCCBr)CCC(F)(F)F [(63)]
[3]
  death rate of the pest: ≥ 90%

## N#CC(C#N)(CCC(F)(F)F)CC(F)(F)C(F)(F)F [(22)]
[1]
  number of the parasitic pest (Nilaparvata lugens on the rice plants): ≤ 3
[2]
  death rate of the pest: ≥ 90%
[3]
  death rate of the pest: ≥ 90%

## CC(C)CCC(C#N)(C#N)CC(F)(F)C(F)(F)C(F)(F)C(F)F [(77)]
[1]
  number of the parasitic pest (Nilaparvata lugens on the rice plants): ≤ 3
[2]
  death rate of the pest: ≥ 90%
[3]
  death rate of the pest: ≥ 90%

## N#CC(C#N)(CCC(F)(F)F)C[C@H]1CCC[C@@H](C(F)F)C1 [(87)]
[1]
  number of the parasitic pest (Nilaparvata lugens on the rice plants): ≤ 3
[2]
  death rate of the pest: ≥ 90%
[3]
  death rate of the pest: ≥ 90%

## N#CC(C#N)(CCCC(F)(F)C(F)(F)F)CCC(F)(F)F [(89)]
[1]
  number of the parasitic pest (Nilaparvata lugens on the rice plants): ≤ 3
[2]
  death rate of the pest: ≥ 90%
[3]
  death rate of the pest: ≥ 90%

## N#CC(C#N)(CCC(F)(F)F)CC1CCC(C(F)(F)F)CC1 (centres unmarked) [(85)]
[1]
  number of the parasitic pest (Nilaparvata lugens on the rice plants): ≤ 3
[2]
  death rate of the pest: ≥ 90%
[3]
  death rate of the pest: ≥ 90%

## N#CC(C#N)(CCC(F)(F)F)CCC(F)(C(F)(F)F)C(F)(F)F [(36)]
[1]
  number of the parasitic pest (Nilaparvata lugens on the rice plants): ≤ 3
[2]
  death rate of the pest: ≥ 90%
[3]
  death rate of the pest: ≥ 90%

## CC(F)(F)CCC(C#N)(C#N)CCC(F)(F)F [(64)]
[1]
  number of the parasitic pest (Nilaparvata lugens on the rice plants): ≤ 3
[2]
  death rate of the pest: ≥ 90%

## N#CC(C#N)(CCC(F)(F)F)CC(Cl)C(F)(F)F (centres unmarked) [(58)]
[1]
  number of the parasitic pest (Nilaparvata lugens on the rice plants): ≤ 3
[2]
  death rate of the pest: ≥ 90%
[3]
  death rate of the pest: ≥ 90%

## CCCCC(C#N)(C#N)CCC(F)(F)F [(8)]
[3]
  death rate of the pest: ≥ 90%

## N#CC(C#N)(CCC(F)(Cl)C(F)(F)Br)CC(F)(F)C(F)C(F)(F)F (centres unmarked) [(46)]
[1]
  number of the parasitic pest (Nilaparvata lugens on the rice plants): ≤ 3
[2]
  death rate of the pest: ≥ 90%
[3]
  death rate of the pest: ≥ 90%

## CCCCCCCCC(C#N)(C#N)CCC(F)(F)F [(12)]
[3]
  death rate of the pest: ≥ 90%

## N#CC(C#N)(CC(F)(F)C(F)(F)F)CC(F)(F)C(F)(F)F [(93)]
[3]
  death rate of the pest: ≥ 90%

## CCCCC(C#N)(C#N)CC(F)(F)C(F)(F)C(F)(F)C(F)F [(80)]
[1]
  number of the parasitic pest (Nilaparvata lugens on the rice plants): ≤ 3
[2]
  death rate of the pest: ≥ 90%
[3]
  death rate of the pest: ≥ 90%

## N#CC(C#N)(CCCCCl)CCC(F)(F)F [(3)]
[1]
  number of the parasitic pest (Nilaparvata lugens on the rice plants): ≤ 3
[2]
  death rate of the pest: ≥ 90%
[3]
  death rate of the pest: ≥ 90%

## C#CCC(C#N)(C#N)CC(F)(F)C(F)(F)C(F)(F)C(F)F [(76)]
[1]
  number of the parasitic pest (Nilaparvata lugens on the rice plants): ≤ 3
[2]
  death rate of the pest: ≥ 90%
[3]
  death rate of the pest: ≥ 90%

## CCCC(C#N)(C#N)CC(F)(F)C(F)(F)C(F)(F)C(F)F [(82)]
[1]
  number of the parasitic pest (Nilaparvata lugens on the rice plants): ≤ 3
[2]
  death rate of the pest: ≥ 90%
[3]
  death rate of the pest: ≥ 90%

## CC(CCl)CC(C#N)(C#N)CCC(F)(F)F (centres unmarked) [(2)]
[1]
  number of the parasitic pest (Nilaparvata lugens on the rice plants): ≤ 3
[2]
  death rate of the pest: ≥ 90%

## N#CC(C#N)(CCC(F)=C(F)F)CCC(F)(F)F [(17)]
[2]
  death rate of the pest: ≥ 90%
[3]
  death rate of the pest: ≥ 90%
